Experimental data: PubChem BioAssay AID743454 (Peter MacCallum Cancer Centre, 2014)
In all, the deposit lists about 18,000 reagents; shown is an unselected part. 450 of all reagents (2.5%) count as active. 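Single biological run; no consistent viability z cut-off exists, so the class columns, not z-scores, define the calls.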 Reagent sequences are not shown.

Aim: 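Genes whose loss kills vorinostat-resistant colon cancer cells under vorinostat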 (primary screen)
Cells: human HCT116-VR colon cancer cells, selected for vorinostat resistance
Reagents: siRNA pool against human genes, 40 nM siRNA pool
Timing: vorinostat for 24 h, read-out about 72 h after transfection
Challenge: vorinostat at 2.5 µM final
Detection: 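Two measures, CellTiter-Fluor viability and luminescent caspase 3/7 activity, each as fold change against same-plate mock wells, mean of duplicates, then screen-wide robust z-score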
Direction: viability robust z-score: higher = more viable cells than screen typical; caspase robust z-score: higher = more caspase 3/7 activity than screen typical
Hit rule: 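Hits are knock-downs in viability class RV1/RV2 or caspase class CA1/CA2, excluding ones that killed cells in the no-drug cell-count arm; hits then retested with single siRNAs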

target gene	PubChem SID	viability hit class	caspase hit class	viability robust z-score	caspase robust z-score	activity call
LRRTM3	SID152155311	no change	no change	0.39	-0.15	inactive
CCDC91	SID152156539	no change	no change	0.77	0.76	inactive
NUFIP1	SID134323383	no change	no change	0.58	-0.42	inactive
PCNA	SID56478631	no change	no change	-1.32	1.52	inactive
DPY19L2	SID152153558	no change	no change	0.22	-0.93	inactive
C11orf40	SID134319892	no change	no change	0.06	0.57	inactive
COL12A1	SID152151231	no change	no change	1.7	-0.24	inactive
ZNF43	SID152154933	no change	no change	-0.26	1.68	inactive
OR10V1	SID134329908	no change	CA2 (caspase activation)	-0.73	7.28	active
HRC	SID152151726	no change	no change	-0.33	3.89	inactive
HCRTR1	SID134311066	no change	no change	0.68	0.43	inactive
CCNG1	SID56478577	no change	no change	0.9	0.32	inactive
LMBR1	SID152149374	no change	no change	0.27	2.17	inactive
TRIM34	SID135621290	no change	no change	1.05	-0.09	inactive
PMS2	SID152155622	no change	CA1 (caspase activation)	-0.3	5.17	active
NCALD	SID152148058	no change	no change	0.89	-0.86	inactive
CASP5	SID134310442	no change	no change	-0.24	0.39	inactive
MYRIP	SID152153710	no change	no change	0.02	0.91	inactive
NABP2	SID134318454	no change	no change	-1.17	-0.09	inactive
AP5Z1	SID135624502	no change	no change	0.76	-0.98	inactive
CFAP263	SID134319436	no change	no change	-1.09	1.97	inactive
PDCL2	SID152147873	no change	no change	-0.17	-1.07	inactive
CDC25B	SID56478587	no change	no change	0.12	-0.14	inactive
MAGEE1	SID135622688	no change	no change	0.65	-0.42	inactive
LDB2	SID134316834	no change	no change	-0.15	-1.12	inactive
ST3GAL5	SID135622145	no change	no change	1.5	0.28	inactive
STX8	SID135623860	no change	no change	0.19	-0.81	inactive
NSFL1C	SID134321172	no change	no change	-1.49	-0.91	inactive
SRSF12	SID152147524	no change	no change	0.48	0.68	inactive
KMT2C	SID152153656	no change	no change	-0.8	0.58	inactive
CEACAM21	SID134319140	no change	no change	-0.56	-0.35	inactive
SLC45A3	SID152146854	no change	no change	-0.38	-1.29	inactive
IFNL2	SID134312913	no change	no change	1.61	0.04	inactive
SLC16A7	SID152153280	no change	no change	0.1	-0.09	inactive
NAPRT	SID134320885	no change	no change	-0.9	3.86	inactive
OR2D3	SID152146928	no change	no change	0.37	-0.36	inactive
PRKG1	SID152152064	no change	no change	0.75	-0.56	inactive
SLC38A9	SID134312385	no change	no change	-0.1	-1	inactive
MSR1	SID152150198	no change	no change	0.38	-0.92	inactive
RFX6	SID134322297	no change	no change	0.06	-1.11	inactive
CASZ1	SID152156375	no change	no change	0.9	1.69	inactive
GPR82	SID134311042	no change	no change	-0.4	0.43	inactive
GABRA3	SID152154128	no change	no change	-0.66	1.27	inactive
TMEM41B	SID135625304	no change	no change	0.25	1.84	inactive
H2BC8	SID134321248	no change	no change	0.23	0.69	inactive
LRRC27	SID152155928	no change	no change	-1.23	-0.4	inactive
NDUFA9	SID152155056	no change	no change	1.92	-1.16	inactive
ZNF132	SID152151890	no change	no change	0.42	3.35	inactive
RPL41	SID135622068	no change	no change	0.12	2.75	inactive
TGIF2	SID152152040	no change	no change	-0.26	0.22	inactive
SLC34A1	SID152152125	no change	no change	0.86	-0.26	inactive
RLF	SID152155110	no change	no change	-0.82	1.21	inactive
PTGDR	SID134311141	no change	no change	0.21	0.06	inactive
ALS2CL	SID135623705	no change	no change	-0.27	1.68	inactive
H4C15	SID135625409	no change	no change	0.06	-0.31	inactive
SCYL1	SID152146872	no change	no change	0.45	-1	inactive
ALKAL2	SID152153410	no change	no change	0.72	-0.92	inactive
ZMIZ1	SID152149563	no change	no change	0.45	-0.07	inactive
ELOVL4	SID134314844	no change	no change	-2.15	-0.26	inactive
PRDM14	SID152156326	no change	no change	0.4	0.28	inactive
NOP53	SID152153825	no change	no change	-2.8	-0.06	inactive
CGN	SID134318213	no change	no change	-0.22	-0.6	inactive
ARMCX3	SID134317555	no change	no change	0.58	-0.5	inactive
AKNA	SID152154629	no change	no change	-0.56	4.17	inactive
SEMA3B	SID152155120	no change	no change	0.34	-0.55	inactive
NRDE2	SID134318002	no change	no change	-1.33	1.95	inactive
SLC8A2	SID152151457	no change	no change	0.53	0.2	inactive
ITGB8	SID152149430	no change	no change	-0.6	0.88	inactive
XYLB	SID152153831	no change	no change	1.58	-0.68	inactive
SLC25A27	SID135621383	no change	no change	-1.76	2	inactive
ZNF573	SID134320605	no change	no change	-0.89	1.49	inactive
CEACAM8	SID152152441	no change	no change	0.3	-0.72	inactive
SP140	SID135623161	no change	no change	2.06	0.67	inactive

Ordered by “caspase robust z-score” (lowest first): 4 of the entries above.
target gene	PubChem SID	viability hit class	caspase hit class	viability robust z-score	caspase robust z-score	activity call
COL12A1	SID152151231	no change	no change	1.7	-0.24	inactive
ZNF43	SID152154933	no change	no change	-0.26	1.68	inactive
HRC	SID152151726	no change	no change	-0.33	3.89	inactive
OR10V1	SID134329908	no change	CA2 (caspase activation)	-0.73	7.28	active
